The source of these data is PMC8765783, “Identification of the potential active site of the septal peptidoglycan polymerase FtsW” (PLoS Genetics, 2022).

No constants are given. Whether binding was seen depends on the method and setting. In cells and extracts the contact can be indirect. Some entries that bind do so weakly or less than the wild type. Tags and fused reporters may be left off the sequences shown.

The test concerns the target T1, HisFtsI(PBP3) (E. coli) (UniProt P0AD68).
T1 sequence: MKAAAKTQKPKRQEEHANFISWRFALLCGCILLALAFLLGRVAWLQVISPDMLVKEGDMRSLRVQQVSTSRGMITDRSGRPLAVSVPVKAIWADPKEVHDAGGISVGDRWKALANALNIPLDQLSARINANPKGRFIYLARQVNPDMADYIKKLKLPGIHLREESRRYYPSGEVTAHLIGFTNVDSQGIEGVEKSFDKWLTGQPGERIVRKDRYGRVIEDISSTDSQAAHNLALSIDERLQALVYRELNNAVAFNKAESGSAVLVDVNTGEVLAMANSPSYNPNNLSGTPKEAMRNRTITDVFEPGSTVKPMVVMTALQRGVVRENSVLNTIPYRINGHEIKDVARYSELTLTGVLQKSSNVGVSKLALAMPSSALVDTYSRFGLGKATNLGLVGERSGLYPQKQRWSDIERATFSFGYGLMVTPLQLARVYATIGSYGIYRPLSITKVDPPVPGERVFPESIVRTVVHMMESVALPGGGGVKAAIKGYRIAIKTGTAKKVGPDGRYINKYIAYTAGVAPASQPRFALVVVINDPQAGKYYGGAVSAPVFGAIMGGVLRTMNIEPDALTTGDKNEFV
Nature of the test: pull-down; His-tagged protein co-expressed with the untagged partner in E. coli; membranes solubilised in DDM; His-tagged protein held on a HisTrap column (50 mM Tris-HCl pH 7.5, 300 mM NaCl, 10% glycerol, 1 mM DDM, 50 mM imidazole), eluted with an imidazole gradient; SDS-PAGE with Coomassie, Bocillin FL fluorescence or anti-HA blot.

B1: FtsW, untagged (enzyme, UniProt P0ABG4 1-414)
chain: MRLSLPRLKMPRLPGFSILVWISTALKGWVMGSREKDTDSLIMYDRTLLWLTFGLAAIGFIMVTSASMPIGQRLTNDPFFFAKRDGVYLILAFILAIITLRLPMEFWQRYSATMLLGSIILLMIVLVVGSSVKGASRWIDLGLLRIQPAELTKLSLFCYIANYLVRKGDEVRNNLRGFLKPMGVILVLAVLLLAQPDLGTVVVLFVTTLAMLFLAGAKLWQFIAIIGMGISAVVLLILAEPYRIRRVTAFWNPWEDPFGSGYQLTQSLMAFGRGELWGQGLGNSVQKLEYLPEAHTDFIFAIIGEELGYVGVVLALLMVFFVAFRAMSIGRKALEIDHRFSGFLACSIGIWFSFQALVNVGAAAGMLPTKGLTLPLISYGGSSLLIMSTAIMMLLRIDYETRLEKAQAFVRGSR
As to B1, the binding entry was “binds”.
